According to patent publication US11111222B2, “Hydroxyeicosatrienoic acid compounds and their use as therapeutic agents” (THE REGENTS OF THE UNIVERSITY OF MICHIGAN, priority 2016, dated 2021):
For at least one compound, name, drawing or mass did not settle the structure.

What was measured:
adenylyl cyclase = test: LC/MS quantification of cAMP in washed human platelets; format: cell-based; settings: forskolin 0.5 μM, 1 min; platelets pre-treated with 10 μM IBMX
Protocol: Washed human platelets were treated with the specific ligand or vehicle control for 1 min at room temperature, and quenched with an equal volume of ice-cold 2× platelet lysis buffer containing protease and phosphatase inhibitors. Lysed platelet samples were centrifuged at 14,000 g for 7 min at 4° C. to pellet cytoskeleton and the supernatant was stored in −80° C.
To prepare the sample for LC/MS injection, 200 μL of the supernatant was spiked with 400 pg of adenosine-3′,5′-cyclic-13C5 monophosphate (^13C5-cAMP) (Toronto Research Chemicals, Inc.), an internal standard, and 600 μL of LC/MS grade acetonitrile (Fisher Scientific). The sample was briefly vortexed and centrifuged at 14,000 rpm for 10 min at 4° C. The supernatants were then air dried in a SpeedVac and reconstituted in 200 μL of LC/MS grade water and centrifuged at 10,000 rpm for 5 min at 4° C. and used for LC/MS injection.
The separation and detection of cAMP was performed on a Waters ACQUITY UPLC system equipped with a Xevo Triple Quadrupole Mass Spectrometer (TQ-S MS/MS). […]
The mass spectrometer was operated with an ESI source in positive mode. […] Cyclic AMP (cAMP) was quantitated using ^13C5-cAMP as the internal standard. […]

VASP (serine 157) = test: VASP phosphorylation in human platelets; format: cell-based; settings: forskolin 0.5 μM, 1 min
Protocol: Washed platelets were treated with PUFA or PUFA metabolite (12(S)-HETrE or compound IIc) for one minute, then directly lysed in 5× Laemmeli sample buffer (1.5 M Tris-HCl, pH 6.8, glycerol, 5% β-mercaptoethanol, 10% sodium dodecyl sulfate (SDS), and 1% bromophenol blue). The samples were boiled for five minutes and then run on a 10% SDS-PAGE gel. The levels of total and phospho-VASP (serine 157) were quantified by Western Blot using an Odyssey imaging system (LI-CoR).

C=C[C@@]1(C)CC(=O)[C@]2(O)[C@@]3(C)[C@@H](O)CCC(C)(C)[C@@H]3[C@H](O)[C@H](OC(C)=O)[C@@]2(C)O1 [forskolin]
level of intracellular cAMP (adenylyl cyclase): increase in cAMP levels | VASP phosphorylation (S157) (VASP (serine 157)): increase in VASP phosphorylation
